In patent US20230158179A1, “RADIOPHARMACEUTICAL CONJUGATE COMPOSITIONS AND USES THEREOF” (RayzeBio, Inc., priority 2020, published 2023):
Not every detail of the peptide structures is certain; ends, links or a residue may be inferred. Bridge positions count the residues as written; N and C are the ends. Square brackets hold non-standard residues; d marks the D form. Peptide text beside a SMILES is read from it. Phe(3-Ph) = N[C@@H](Cc1cccc(-c2ccccc2)c1)C(=O)O; Phe(3-Cl) = N[C@@H](Cc1cccc(Cl)c1)C(=O)O; NMeY = CN[C@@H](Cc1ccc(O)cc1)C(=O)O; NMeF = CN[C@@H](Cc1ccccc1)C(=O)O; Cba = N[C@@H](CC1CCC1)C(=O)O; Chg = N[C@H](C(=O)O)C1CCCCC1

How the values were obtained:
[1] = test system: FOLR1 expressing cells (IGROV1); assay: FACS binding to FOLR1 expressing cells; type: cell-based; settings: hPlasma/PBS, on ice
[2] = test system: PSMA expressing cells (LnCap); assay: FACS binding to PSMA expressing cells; type: cell-based; settings: biotinylated compounds
Method: LnCap cells, 2e^6 cells/ml
SYTOX viability dye • (1) Washed cells with PBS once. • (2) Incubated cells with 5 ml of Accutase at 37 degrees for 2-5 minutes. Gently rocking the flask until the layer of cells pilling off • (3) Added 15 ml of PBS into flask and transferred to a 50 ml conical tube • (4) Spun down 1600 rpm 3 minutes • (5) Resuspended in 2 ml of PBS, and counted cells • (6) Adjusted cell density to 2e6 cells/ml with PBS and then added 100 uL/well to the plate and mixed well • (7) Spun down 1600 rpm 3 minutes • (8) Add 100 uL of compound/well respectively. Prepared serial dilute compound in PBS, 1 uM to 0.01 nM, 1:3 dilution, 10 point curve • (9) Incubated for 50 minutes total • (10) Washed wells with 150 uL PBS and spun down 1600 rpm 3 min and dumped • (11) Added SA-A647, 1:1000 dilution in FACS buffer, 100 ul/well to respective wells • (12) Incubated for 50 min on ice • (13) Washed with 200 uL PBS spun 1600 rpm 3 min dump • (14) Resuspended in 100 uL SYTOX, 1:1000 dilution in FACS buffer • (15) Acquired

SMILES	EC50 [1]	EC50 [2]
CC(C)C[C@@H]1NC(=O)[C@H](CCCNC(=N)N)NC(=O)[C@H](C)NC(=O)CSC[C@@H](C(N)=O)NC(=O)[C@H](Cc2ccc(O)cc2)NC(=O)[C@H](Cc2c[nH]c3ccccc23)NC(=O)[C@H](Cc2ccc(O)cc2)N(C)C(=O)[C@H](Cc2ccc(O)cc2)N(C)C(=O)[C@H]([C@@H](C)O)NC(=O)[C@H](CC(=O)O)NC(=O)[C@H](Cc2ccc(O)cc2)NC(=O)[C@H](CC(=O)O)NC(=O)[C@H](Cc2ccccc2)N(C)C1=O [Compound P-10] ({CH2CO}-ARL[NMeF]DYDT[NMeY][NMeY]WYC-NH2; thioether N-13)	< 100 nM	
C[C@@H](O)[C@@H]1NC(=O)[C@H](CC(=O)O)NC(=O)[C@H](Cc2cccc(Cl)c2)NC(=O)[C@H](CC(=O)O)NC(=O)[C@H](Cc2ccccc2)N(C)C(=O)[C@H](C2CCCCC2)NC(=O)[C@H](CCCNC(=N)N)NC(=O)[C@H](CC(=O)O)NC(=O)CSC[C@@H](C(N)=O)NC(=O)[C@H](Cc2ccc(O)cc2)NC(=O)[C@H](Cc2c[nH]c3ccccc23)NC(=O)[C@H](Cc2ccc(O)cc2)N(C)C(=O)[C@H](Cc2ccc(O)cc2)N(C)C1=O [Compound P-11] ({CH2CO}-DR[Chg][NMeF]D[Phe(3-Cl)]DT[NMeY][NMeY]WYC-NH2; thioether N-13)	< 100 nM	
CC(C)[C@@H]1NC(=O)[C@H](CC(=O)O)NC(=O)[C@H](Cc2cccc(-c3ccccc3)c2)NC(=O)[C@H](Cc2c[nH]c3ccccc23)NC(=O)CSC[C@@H](C(N)=O)NC(=O)[C@H](CC(=O)O)NC(=O)[C@H](Cc2cccc(-c3ccccc3)c2)NC(=O)[C@H](Cc2c[nH]c3ccccc23)NC(=O)[C@H](CC2CCC2)NC(=O)[C@H](CC(=O)O)NC(=O)[C@H](CO)NC(=O)[C@H](CC(=O)O)NC1=O [Compound P-21] ({CH2CO}-W[Phe(3-Ph)]DVDSD[Cba]W[Phe(3-Ph)]DC-NH2; thioether N-12)		< 100 nM
